Results on five molecules are retold here after article PMC5794780, “ATP-dependent conformational change in ABC-ATPase RecF serves as a switch in DNA repair” (Scientific Reports, 2018).

Results are given in words; binding and its absence hold for the method and conditions named.

Assay [1] has as its target deletion mutant of RecF (229aa-262aa) (Thermoanaerobacter tengcongensis MB4) (UniProt Q8RDL3). Description: SEC; Superdex-200, 0.5 ml/min, 50 mM Tris-HCl pH 7.0, 300 mM NaCl; protein alone, no nucleotide (native TTERecF 100 µM); both purified.
Assay [2] has the same target. Description: SEC; Superdex-200, 0.5 ml/min, 50 mM Tris-HCl pH 7.0, 300 mM NaCl; protein with ATPɤS (2 mM for native TTERecF; deletion mutant incubated with 1 mM ATPɤS for 30 min); both purified.
Assay [3] addresses TTERecF mutant G35A (Thermoanaerobacter tengcongensis MB4) (UniProt Q8RDL3). Description: SEC; Superdex-200, 0.5 ml/min, 50 mM Tris-HCl pH 7.0, 300 mM NaCl; protein with ATP 1 mM (G35A 10 µM, K36A 77 µM, S37A 35 µM, N38A 47 µM); both purified. A general note: SEC sorts molecules by how far they enter the pores of the column.
Assay [4] deals with TTERecF mutant K36A (Thermoanaerobacter tengcongensis MB4) (UniProt Q8RDL3). Described as above.
In assay [5] the target is TTERecF mutant N38A (Thermoanaerobacter tengcongensis MB4) (UniProt Q8RDL3). Described as above.
Assay [6] concerns the target TTERecF mutant S37A (Thermoanaerobacter tengcongensis MB4) (UniProt Q8RDL3). The description is as above.

B1: deletion mutant of RecF (229aa-262aa) (protein, UniProt Q8RDL3)
chain: MYLKEIFVDNFRNLKKQKLEFCEGVNLIYGLNAQGKSNLLEAIRLLSMGRSFRGSKMSELVKFDEEYFYVRGLVRSADFYEKKIEFGYKVNGNKVIKVNGNKLKSTGEILGHFLTVIFSPEDIEIIKEGPSRRRKYLDACISVIDKNYFFDLLQYNKTLSNRNSLLKKIKEEGKGEDLLEIFDEKLAEYGARIIKVRNNYLEKLKNSMSKFLMEISNEKLEIIYLNSAGPHREDFKILINGYDSRVYSSQGQKRTAALCLKLSELEILEEETGEKPVLLLDDVMSELDDNRKKYILKKLEGFQSFITHTSKSDVEGDCCFKIYDGIV
Regarding B1, the values for the binding result in assay [1] and in assay [2] were “no binding” and “no binding (tested: with 1 mM ATPɤS for 30 min)”, respectively.

B2: TTERecF mutant G35A (protein, UniProt Q8RDL3 1-361)
chain: MYLKEIFVDNFRNLKKQKLEFCEGVNLIYGLNAQAKSNLLEAIRLLSMGRSFRGSKMSELVKFDEEYFYVRGLVRSADFYEKKIEFGYKVNGNKVIKVNGNKLKSTGEILGHFLTVIFSPEDIEIIKEGPSRRRKYLDACISVIDKNYFFDLLQYNKTLSNRNSLLKKIKEEGKGEDLLEIFDEKLAEYGARIIKVRNNYLEKLKNSMSKFLMEISNEKLEIIYLNSAGVKEVHEENLIREKLKNRLTKSLTLDLKYLSTQVGPHREDFKILINGYDSRVYSSQGQKRTAALCLKLSELEILEEETGEKPVLLLDDVMSELDDNRKKYILKKLEGFQSFITHTSKSDVEGDCCFKIYDGIV
Regarding B2, in assay [3], the binding entry is recorded as “no binding (tested: 10 µM, with ATP 1 mM)”.

B3: TTERecF mutant K36A (protein, UniProt Q8RDL3 1-361)
chain: MYLKEIFVDNFRNLKKQKLEFCEGVNLIYGLNAQGASNLLEAIRLLSMGRSFRGSKMSELVKFDEEYFYVRGLVRSADFYEKKIEFGYKVNGNKVIKVNGNKLKSTGEILGHFLTVIFSPEDIEIIKEGPSRRRKYLDACISVIDKNYFFDLLQYNKTLSNRNSLLKKIKEEGKGEDLLEIFDEKLAEYGARIIKVRNNYLEKLKNSMSKFLMEISNEKLEIIYLNSAGVKEVHEENLIREKLKNRLTKSLTLDLKYLSTQVGPHREDFKILINGYDSRVYSSQGQKRTAALCLKLSELEILEEETGEKPVLLLDDVMSELDDNRKKYILKKLEGFQSFITHTSKSDVEGDCCFKIYDGIV
For the molecule B3, in assay [4], the binding result is “no binding (tested: 77 µM, with ATP 1 mM)”.

B4: TTERecF mutant N38A (protein, UniProt Q8RDL3 1-361)
chain: MYLKEIFVDNFRNLKKQKLEFCEGVNLIYGLNAQGKSALLEAIRLLSMGRSFRGSKMSELVKFDEEYFYVRGLVRSADFYEKKIEFGYKVNGNKVIKVNGNKLKSTGEILGHFLTVIFSPEDIEIIKEGPSRRRKYLDACISVIDKNYFFDLLQYNKTLSNRNSLLKKIKEEGKGEDLLEIFDEKLAEYGARIIKVRNNYLEKLKNSMSKFLMEISNEKLEIIYLNSAGVKEVHEENLIREKLKNRLTKSLTLDLKYLSTQVGPHREDFKILINGYDSRVYSSQGQKRTAALCLKLSELEILEEETGEKPVLLLDDVMSELDDNRKKYILKKLEGFQSFITHTSKSDVEGDCCFKIYDGIV
Take B4: the binding result in assay [5] is “no binding (tested: 47 µM, with ATP 1 mM)”.

B5: TTERecF mutant S37A (protein, UniProt Q8RDL3 1-361)
chain: MYLKEIFVDNFRNLKKQKLEFCEGVNLIYGLNAQGKANLLEAIRLLSMGRSFRGSKMSELVKFDEEYFYVRGLVRSADFYEKKIEFGYKVNGNKVIKVNGNKLKSTGEILGHFLTVIFSPEDIEIIKEGPSRRRKYLDACISVIDKNYFFDLLQYNKTLSNRNSLLKKIKEEGKGEDLLEIFDEKLAEYGARIIKVRNNYLEKLKNSMSKFLMEISNEKLEIIYLNSAGVKEVHEENLIREKLKNRLTKSLTLDLKYLSTQVGPHREDFKILINGYDSRVYSSQGQKRTAALCLKLSELEILEEETGEKPVLLLDDVMSELDDNRKKYILKKLEGFQSFITHTSKSDVEGDCCFKIYDGIV
For the molecule B5, in assay [6], the binding entry was “no binding (tested: 35 µM, with ATP 1 mM)”.
